Our source for the step yield values is patent US9796660 (dated 2017).

The nature of this data set: general procedure: solution-phase peptide synthesis; EDCI/HOBt/DIEA; EDCI/DMAP.

As to Boc-(Et)ACHA-(D)Phe-(Et)ACHA-(D)Phe-OMe, under “late stage modification step”, the step yield was 80% yield.

Substance NO2-(Et)ACHA-(D)Phe-(Et)ACHA-(D)Phe-OMe displayed a step yield (coupling step) of 80% yield.

For “Boc-(D)Ala-(Et)ACHA-(D)Ala-(Et)ACHA-(D)Ala-(Et)ACHA-OBn”, for the setting “coupling step”, the step yield amounted to 92% yield.

Boc-(D)Ala-(Et)ACHA-(D)Ala-(Et)ACHA-OBn yielded a step yield (coupling step) of 90% yield.
